Measurements reported in US20160257751A1 (SORRENTO THERAPEUTICS, published 2016).
These are yes or no findings as the source states them, for the method shown. Some results given as binding are weak or reduced against the parent protein; the word gives no strength.

The chains behind the UniProt entries cited, without tags or fusion partners. Residues count along the entry.
UniProt Q08722, residues 19-139: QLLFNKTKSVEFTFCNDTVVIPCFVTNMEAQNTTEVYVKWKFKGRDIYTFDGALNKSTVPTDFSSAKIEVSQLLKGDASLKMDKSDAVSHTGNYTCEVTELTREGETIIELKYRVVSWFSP

Experiments:
human CD47 [1] = target: T1, human CD47 (human, UniProt Q08722 19-139, limits assumed, biotinylated in the ELISAs (site not stated)); experiment: affinity screen of CDR variants and combinatorial library, relative to C47B10-1
T1 construct: also called biotinylated CD47; CD47 receptor

human CD47 [2] = target: T1, human CD47; experiment: ELISA, antibody captured on goat anti-lambda, biotinylated CD47, neutravidin-AP detection
human CD47 [3] = target: T1, human CD47; experiment: ELISA: antibody at 1 ug/ml captured on goat anti-lambda antibody; serially diluted biotinylated CD47, then neutravidin-AP; PNPP absorbance

- binding (human CD47 [1]): binds
- binding (human CD47 [2]): binds
- binding (human CD47 [3]): binds
B1: C47B10-1F6S (antibody, V domains shown)
VH: QVQLVQSGAEVKKPGASVKVSCKASGYTFTSYYMHWVRQAPGQGLEWMGIINPSGGSTSYAQKFQGRVTMTRDTSTSTVYMELSSLRSEDTAVYYCARSTLWFSEFDYWGQGTLVTVSS
VL: QSALTQPASVSGSPGQSISISCTGTSSDVGGHNYVSWYQQHPGKAPKLMIYDVRNRPSGVSNRFSGSKSGSTASLTISGLQTEDEADYYCLSYTGSRTYVFGSGTKLTVL
